These are yes or no findings as the source states them, for the method shown. Binding can be weak; no strength is given.
Biological target: histone H2A from Brassica oleracea (Brassica oleracea)
Test: far-Western, overlay or dot blot; purified B. oleracea histones separated on 15% SDS-PAGE and transferred to PVDF; membrane incubated with AtFib2 (0.5 ug) in 20 mM Tris pH 7.6, 100 mM NaCl, 0.5 mM EDTA, 10% glycerol, 0.1% tween-20, 2% non-fat milk, 1 mM DTT at 25 C for 4 h; detected with anti-fibrillarin; H2A band verified by anti-H2A after stripping; both purified

B1: Arabidopsis thaliana fibrillarin 2 (enzyme, UniProt Q94AH9 1-320)
chain: MRPPLTGSGGGFSGGRGRGGYSGGRGDGGFSGGRGGGGRGGGRGFSDRGGRGRGRGPPRGGARGGRGPAGRGGMKGGSKVIVEPHRHAGVFIAKGKEDALVTKNLVPGEAVYNEKRISVQNEDGTKTEYRVWNPFRSKLAAAILGGVDNIWIKPGAKVLYLGAASGTTVSHVSDLVGPEGCVYAVEFSHRSGRDLVNMAKKRTNVIPIIEDARHPAKYRMLVGMVDVIFSDVAQPDQARILALNASYFLKSGGHFVISIKANCIDSTVPAEAVFQTEVKKLQQEQFKPAEQVTLEPFERDHACVVGGYRMPKKPKAATAA
With B1 the binding was “binds”.
